Reference: patent EP0381057A2, “Chemical composition for external application” (Sansho Seiyaku Co., Ltd., priority 1989, dated 1990)
At least one read-out could not be matched to a standard name with certainty.

Test system: B16 cells
Assay: test of formation of melanin by B16 cells (whitening test of incubated color cells, reflection density by densitometer)
Assay type: cell-based, Mouse

SMILES	Whitened Degree (fatty acid alone, 0.001 mM)	Whitened Degree (fatty acid alone, 0.01 mM)	Whitened Degree (fatty acid alone, 0.1 mM)	Whitened Degree (fatty acid alone, 0.5 mM)	Whitened Degree (kojic acid alone, 0.5 mM)	Whitened Degree (kojic acid alone, 1.0 mM)	Whitened Degree (kojic acid alone, 1.5 mM)	Whitened Degree (kojic acid alone, 2.0 mM)
CC=CCCCCC(=O)O [6-Octenoic Acid, 6-octenoic acid]	-	-	+	+				
CCCCC=CCCCCCCCCC(=O)O [10-Pentadecenoic Acid, 10-pentadecenoic acid]	-	-	+	+				
CCCCC/C=C\C/C=C\C/C=C\CCCCCCC(=O)O [Homo-γ-linolenic Acid, homo-γ-linolenic acid]	-	-	+	+				
O=c1cc(CO)occ1O [Kojic Acid, 5-oxy-2-hydroxymethyl-γ-pyrone]					-	-	-	+
CCCCC/C=C\C/C=C\CCCCCCCC(=O)O [Linolic Acid, linolic acid]	-	-	+	+				
CCCC/C=C\CCCCCCCC(=O)O [Myristoleic Acid, myristoleic acid]	-	-	+	+				
CCCCCCCC/C=C\CCCCCCCC(=O)O [Oleic Acid, oleic acid]	-	-	+	+				
CCCCCC/C=C\CCCCCCCC(=O)O [Palmitoleic Acid, palmitoleic acid]	-	-	+	+				
